Reference: the supplement of paper PMC12823440, “Inhibitors supercharge kinase turnover through native proteolytic circuits” (Nature, 2025)
Counter-ions that a name gives are not always drawn. The list shows a part of the results. Hit calls seldom repeat between salt and free forms of one compound.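 Kinases were expressed as nanoluciferase fusions in K562 cells and luminescence was read every 4 h between 2 and 18 h as percent of control, DMSO set to 100% and a positive control to 0%. A time point counts as decreased when the signal drops significantly (2 sigma). The hit call is the authors' own, does not follow from the count of time points alone, and its rule is not shown.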

Amino acid sequences for entries named in this document (tags omitted). A change or cut given only in a name is not applied to a line headed by its entry.
UniProt Q9UQB9: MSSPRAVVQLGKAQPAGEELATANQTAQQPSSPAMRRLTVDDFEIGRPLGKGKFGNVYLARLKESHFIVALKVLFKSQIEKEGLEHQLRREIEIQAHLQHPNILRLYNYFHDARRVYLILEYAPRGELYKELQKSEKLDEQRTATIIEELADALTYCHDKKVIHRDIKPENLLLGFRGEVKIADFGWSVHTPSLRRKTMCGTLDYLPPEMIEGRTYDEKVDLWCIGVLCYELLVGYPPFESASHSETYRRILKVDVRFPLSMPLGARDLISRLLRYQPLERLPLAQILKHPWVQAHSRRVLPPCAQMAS

biological target: AURKC (UniProt Q9UQB9); assay: kinase-Nluc reporter destabilization hit call (1 = scored as downregulated) (binary); higher = compound decreases kinase abundance; conditions: K562; 2-18 h

kinase-Nluc reporter destabilization hit call, inactive:
CC(C)CCN1c2nc(Nc3cc(F)c(O)c(F)c3)ncc2N(C)C(=O)C1C (stereo not drawn) (2.5 µM) 0
CC(C)=CC[C@@H](O)C1=CC(=O)c2c(O)ccc(O)c2C1=O [Shikonin] (10 µM) 0
CCC(=O)Nc1cccc(Oc2nc(Nc3ccc(N4CCN(C)CC4)cc3OC)ncc2Cl)c1 (10 µM) 0
CC(C)=CCC/C(C)=C/CC/C(C)=C/C=C/C(C)=C/C(=O)O [Peretinoin] (10 µM) 0
COc1ccc2c(Oc3ccc4c(C(=O)Nc5ccccc5N)cccc4c3)ccnc2c1 [Chiauranib] (10 µM) 0
Cc1nn(C)cc1-c1nc2c(N3CCN(Cc4ccc(Cl)cc4)CC3)c(Cl)cnc2[nH]1 (10 µM) 0
CNC(=O)c1cc2c(Oc3ccc(NC(=O)C4(C(=O)Nc5ccc(F)cc5)CC4)cc3)ccnc2cc1OC (2.5 µM) 0
O=C(Nc1cccnc1)c1cc(-c2ccnc(F)c2)ccc1OCc1ccccc1 (10 µM) 0
CN(C)c1ccc(-c2nc3ncc(Cl)c(N4CCN(CC(=O)Nc5nccs5)CC4)c3[nH]2)cc1 (2 µM) 0
Cc1cc(C(=O)NC(C)(C)C)cc(C#Cc2ccc3c4c(oc3c2)C(C)(C)c2cc(NS(C)(=O)=O)ccc2C4=O)n1 (10 µM) 0
O=C(O)c1cc(N(Cc2ccccc2O)Cc2cc(O)ccc2O)ccc1O [Lavendustin A] (10 µM) 0
C[C@@H](Nc1ncnc2[nH]c(-c3ccc(O)cc3)cc12)c1ccccc1 (2.5 µM) 0
O=C(O)c1ccc(/C=C/S(=O)(=O)Cc2ccc(Cl)cc2)cc1 [Recilisib] (10 µM) 0
Nc1nc(NCCNc2ncc(-n3ccnc3)c(-c3ccc(Cl)cc3Cl)n2)ccc1[N+](=O)[O-] (2.5 µM) 0
Cc1cnc(NC(=O)c2cc(Oc3cnc(C(=O)N(C)C)nc3)c3cc(C)oc3c2)cn1 (10 µM) 0
CNC(=O)CNc1cnc2ccc(-c3ccc(OC)c(OC)c3)cc2n1 (10 µM) 0
N[C@@H]1CCCN(c2c(/C=C3\SC(=O)NC3=O)cccc2-c2ccccc2)C1 (10 µM) 0
CO[C@H]1C[C@@H]2CC[C@@H](C)[C@@](O)(O2)C(=O)C(=O)N2CCCC[C@H]2C(=O)O[C@H]([C@H](C)C[C@@H]2CC[C@@H](OC(=O)C(C)(CO)CO)[C@H](OC)C2)CC(=O)[C@H](C)/C=C(\C)[C@@H](O)[C@@H](OC)C(=O)[C@H](C)C[C@H](C)/C=C/C=C/C=C/1C [Temsirolimus] (2.5 µM) 0
COc1cc2nccc(Oc3ccc(NC(=O)c4cn(C(C)C)c(=O)n(-c5ccc(F)cc5)c4=O)cc3F)c2cc1OC (0.5 µM) 0
C=C1CCC[C@]2(C)C=C3OC(=O)C(C)=C3C[C@@H]12 [Atractylenolide I] (10 µM) 0
C=CC(=O)Nc1cc(Nc2nccc(-c3cn(C)c4ccccc34)n2)c(OC)cc1OCCN(C)C [Rezivertinib] (2.5 µM) 0
C=C1C(=O)[C@@]23[C@H](O)C[C@@H]4C(C)(C)C(=O)CC[C@@]4(C)[C@@H]2CC[C@@H]1[C@H]3O [Glaucocalyxin A] (2.5 µM) 0
NC1(C(=O)NCCCn2cc(-c3ccc(OC(F)(F)F)cc3)c3cc(CN4CCN(Cc5c(Cl)cccc5Cl)CC4)ccc32)CCNCC1 (2.5 µM) 0
CC(Sc1nc2c(cnn2-c2cccc(Cl)c2)c(=O)[nH]1)C(N)=O (stereo not drawn) (10 µM) 0
Fc1ccc2[nH]ccc2c1-c1nc(N2CCOCC2)c2sc(CN3CCN(CC4CC4)CC3)cc2n1 (10 µM) 0
Cn1cc(-c2cc(Oc3cc(F)c(NC(=O)C4(C(=O)Nc5ccccc5)CC4)cc3F)ccn2)cn1 (2.5 µM) 0
COc1ccc(S(=O)(=O)Nc2cc(-c3c(O)ccc4ccccc34)c(O)c3ccccc23)cc1 (10 µM) 0
Cn1c2cc([S+](C)[O-])sc2c2cnn(Cc3cccc(N)c3)c(=O)c21 (stereo not drawn) (2.5 µM) 0
O=C(NCCO)c1cc(C(=O)NCCO)cc(C(=O)NCCO)c1 (10 µM) 0
N#Cc1cnc2c(Cl)cc(NCc3cn(CCN4CCCCCC4)nn3)cc2c1Nc1ccc(F)c(Cl)c1 [Cot inhibitor-1] (10 µM) 0
Cn1c(=O)c2c(nc(S(C)(=O)=O)n2C)n(CC#Cc2cccc(O)c2)c1=O (2.5 µM) 0
Cc1ccc(C)c(OCCn2cc(C(=O)O)c3ccccc32)c1 (10 µM) 0
C=CC(=O)Nc1ccc(C(=O)Nc2[nH]nc3c2CN(C(=O)N[C@H](CN(C)C)c2ccccc2)C3(C)C)cc1 (10 µM) 0
Nc1ncnc2c1nc(Br)n2[C@@H]1O[C@@H]2COP(=O)(O)O[C@H]2[C@H]1O [8-Bromo-cAMP sodium salt] (10 µM) 0
O=c1[nH]ccc2nc(-c3ccc(CN4CCC(c5nc(-c6ccccn6)n[nH]5)CC4)cc3)c(-c3ccccc3)cc12 (10 µM) 0
COc1ccc(Nc2ncc(C(F)(F)F)c(NC3CC3)n2)cc1OC (10 µM) 0
O=C1NC(=O)/C(=C\c2c[nH]c(=O)c(-c3ccc(N4CCNCC4)nc3)c2)S1 [Protein kinase inhibitors 1 hydrochloride] (10 µM) 0
CCN(CC)CCCC(C)Nc1nc(C)cc(Nc2ccc3nc(C)cc(N)c3c2)n1 (stereo not drawn) (10 µM) 0

Quoted at random: two compounds from above
kinase-Nluc reporter destabilization hit call, inactive:
CCN(CC)CCCC(C)Nc1nc(C)cc(Nc2ccc3nc(C)cc(N)c3c2)n1 (stereo not drawn) (10 µM) 0
CC(C)=CCC/C(C)=C/CC/C(C)=C/C=C/C(C)=C/C(=O)O [Peretinoin] (10 µM) 0
